# In PubChem BioAssay:
# Amino acid sequences for entries named in this document (tags omitted).
# UniProt P08183, whole entry, looked up: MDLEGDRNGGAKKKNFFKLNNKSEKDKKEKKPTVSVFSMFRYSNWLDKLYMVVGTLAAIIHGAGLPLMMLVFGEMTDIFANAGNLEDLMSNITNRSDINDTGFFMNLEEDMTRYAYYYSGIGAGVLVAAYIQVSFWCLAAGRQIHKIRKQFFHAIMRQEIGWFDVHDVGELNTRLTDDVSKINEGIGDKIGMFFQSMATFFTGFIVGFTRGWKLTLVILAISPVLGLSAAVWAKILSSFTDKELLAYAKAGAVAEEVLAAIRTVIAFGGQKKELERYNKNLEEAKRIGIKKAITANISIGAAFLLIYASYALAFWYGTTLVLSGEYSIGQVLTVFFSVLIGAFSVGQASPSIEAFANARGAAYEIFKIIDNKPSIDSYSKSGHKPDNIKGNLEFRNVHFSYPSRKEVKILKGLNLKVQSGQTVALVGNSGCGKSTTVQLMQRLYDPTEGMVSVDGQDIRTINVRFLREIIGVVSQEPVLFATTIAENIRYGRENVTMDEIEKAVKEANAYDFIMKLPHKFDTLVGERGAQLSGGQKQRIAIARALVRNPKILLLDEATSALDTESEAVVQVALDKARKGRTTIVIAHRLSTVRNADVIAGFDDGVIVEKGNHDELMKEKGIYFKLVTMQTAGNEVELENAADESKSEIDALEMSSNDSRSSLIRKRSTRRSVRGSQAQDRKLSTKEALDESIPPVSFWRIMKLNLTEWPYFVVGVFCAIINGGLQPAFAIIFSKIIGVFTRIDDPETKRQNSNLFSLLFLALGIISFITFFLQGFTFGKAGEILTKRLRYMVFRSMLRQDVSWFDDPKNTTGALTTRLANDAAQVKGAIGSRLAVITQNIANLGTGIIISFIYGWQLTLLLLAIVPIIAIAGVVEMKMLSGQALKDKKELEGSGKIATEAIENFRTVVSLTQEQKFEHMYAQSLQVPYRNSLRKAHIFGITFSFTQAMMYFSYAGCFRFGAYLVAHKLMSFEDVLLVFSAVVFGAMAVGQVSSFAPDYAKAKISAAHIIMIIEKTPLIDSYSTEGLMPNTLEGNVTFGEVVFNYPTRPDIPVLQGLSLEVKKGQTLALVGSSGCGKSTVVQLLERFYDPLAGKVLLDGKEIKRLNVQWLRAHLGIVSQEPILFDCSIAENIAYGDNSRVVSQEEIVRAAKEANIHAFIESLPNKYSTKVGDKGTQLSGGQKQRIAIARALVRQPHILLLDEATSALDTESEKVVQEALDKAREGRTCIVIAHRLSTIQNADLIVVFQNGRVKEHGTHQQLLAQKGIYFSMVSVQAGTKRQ
# This list was built around the results that the source calls inconclusive (neither active nor inactive); the mix of calls is not that of the screen. For some of these results: Potencies beside an inconclusive call are fits to weak or partial responses and may not hold up. The source made the active and inactive calls. Unless noted, no cut-off is given here; in the data, nearly all actives have AC50 up to about 26 µM.
# Key:
# [1] = growth inhibition of DIPG glioma cells, dose response, cell-based, SU-DIPG-XVII, MIPE5.0, CellTiter-Glo, qHTS (AID 1347060); conditions: SU-DIPG-XVII viability, CellTiter-Glo ATP luminescence;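 for AC50: cells exposed to compound for 48 hours before viability readout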
# [2] = growth inhibition of DIPG glioma cells, dose response, cell-based, SU-DIPG-IV, MIPE4.0, CellTiter-Glo, qHTS (AID 1347063; cut-off not given, nearly all actives have AC50 up to about 30 µM;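 note: compound exposure lasted 48 hours before the viability readout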); conditions: SU-DIPG-IV viability, CellTiter-Glo ATP luminescence
# [3] = molecular target: ATP-dependent translocase ABCB1 (Homo sapiens) (UniProt P08183); experiment: MDR1 (ABCB1) efflux transporter inhibition, cell-based (AID 377; in the data active = fluorescence slope change above about 50%; inconclusive = mostly about 31% to 49%); conditions: MDR1-expressing cells, fluorescent substrate accumulation slope; stronger effect = higher value; concentration not given here
# [4] = inhibitors of polyQ aggregate elongation, biochemical, solid-phase synthetic aggregates, QA3 (AID 1585; call rule not given here); conditions: biotin-polyQ incorporation, at 100 µM, stronger effect = higher value
# [5] = polyglutamine aggregation reduction, turbidity readout, qthio, single concentration 25 µM screen (AID 1588; call rule not given here); conditions: at 25 µM, stronger effect = lower value
# [6] = protection of motor neurons from glutamate death, cell-based, TUNEL DNA degradation staining, MNGlu (AID 1594; call rule not given here); conditions: glutamate-induced death, at 1 µM, stronger effect = higher value
# [7] = enhancers of SMN2 over SMN1 splicing, cell-based, SMN2/SMN1 luciferase reporters (AID 1598; call rule not given here); conditions: SMN2 vs SMN1 luciferase splicing reporter cells; at 10 µM; stronger effect = higher value
# [8] = growth inhibition of DIPG glioma cells, dose response, cell-based, JHH-DIPG-1, MIPE4.0, CellTiter-Glo, qHTS (AID 1347062; cut-off not given, nearly all actives have AC50 up to about 27 µM;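 note: cells exposed to compound for two days before readout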); conditions: JHH-DIPG-1 viability, CellTiter-Glo ATP luminescence
# [9] = growth inhibition of DIPG glioma cells, dose response, cell-based, SU-DIPG-XIII, MIPE5.0, CellTiter-Glo, qHTS (AID 1347064; cut-off not given, nearly all actives have AC50 up to about 23 µM;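 for AC50: cells exposed to compound for 48 hours before the viability read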); conditions: SU-DIPG-XIII viability, CellTiter-Glo ATP luminescence
# [10] = viability loss in pontine glioma line – cell-based, SU-DIPG-XXV, MIPE5.0, CellTiter-Glo, qHTS, dose response (AID 1347065); conditions: CellTiter-Glo ATP luminescence;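 note: cells exposed to compound for 48 hours before ATP readout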
# [11] = SU-DIPG-VI glioma cell viability, MIPE4.0 library, CellTiter-Glo luminescence, qHTS (AID 1347066; cut-off not given, nearly all actives have AC50 up to about 30 µM;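 note: cells exposed to compound for 48 hours before readout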); conditions: CellTiter-Glo ATP luminescence
# [12] = SU-DIPG-XXV glioma cell viability, MIPE5.0 library, qHTS (AID 1347068; cut-off not given, nearly all actives have IC50 up to about 30 µM;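 for IC50: cells exposed to compound for 48 hours before viability readout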)
# [13] = JHH-DIPG-1 glioma cell viability, MIPE5.0 library, CellTiter-Glo luminescence, qHTS (AID 1347067); conditions: JHH-DIPG-1 glioma viability, CellTiter-Glo ATP luminescence;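 note: cells exposed to compound for 48 hours before readout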
smiles,measurement,setting,value
O=P(O)(O)C(O)(Cn1ccnc1)P(=O)(O)O,outcome,[1],inactive
same,AC50,[2],inconclusive: 0.229 µM
O=C1CCC(N2C(=O)c3ccccc3C2=O)C(=O)N1 (centres undefined),fluorescence slope change,[3],active: 58.2%
same,inhibition,[4],inconclusive: -6.19%
same,aggregation (% of control),[5],inconclusive: 87.2%
same,protection,[6],inconclusive: 1%
same,SMN2/SMN1 luciferase ratio,[7],inconclusive: 1.03
same,AC50,[1],inconclusive: 37.2 µM [cytotoxic]
same,AC50,[8],inconclusive: 11.8 nM [cytotoxic]
same,AC50,[9],inconclusive: 0.468 µM [cytotoxic]
same,AC50,[10],inconclusive: 0.00118 µM [cytotoxic]
CNNCc1ccc(C(=O)NC(C)C)cc1,outcome,[1],inactive
same,AC50,[2],inconclusive: 8.33 µM
same,outcome,[9],inactive
same,AC50,[11],inconclusive: 0.0059 µM [cytotoxic]
same,outcome,[12],inactive
C[C@]12CC[C@H](O)CC1=CC[C@@H]1[C@@H]2CC[C@]2(C)C(c3cccnc3)=CC[C@@H]12,outcome,[1],inactive
same,AC50,[2],inconclusive: 0.0144 µM
same,outcome,[9],inactive
same,outcome,[10],inactive
same,IC50,[12],inconclusive: 4.56 µM
O=c1oc2cc(O)ccc2s1,AC50,[1],inconclusive: 33.2 µM [cytotoxic]
same,outcome,[2],inactive
same,outcome,[9],inactive
same,outcome,[10],inactive
same,outcome,[13],inactive
CC(=O)Nc1ccc(O)cc1,fluorescence slope change,[3],inactive: 29.1%
same,inhibition,[4],inconclusive: -2.19%
same,aggregation (% of control),[5],inconclusive: 117%
same,protection,[6],inconclusive: 7%
same,SMN2/SMN1 luciferase ratio,[7],inconclusive: 0.97
same,AC50,[1],inconclusive: 20.9 µM [cytotoxic]
same,AC50,[2],inconclusive: 118 µM [cytotoxic]
same,AC50,[9],inconclusive: 37.2 µM [cytotoxic]
same,AC50,[10],inconclusive: 18.6 µM [cytotoxic]
same,AC50,[13],inconclusive: 37.2 µM [cytotoxic]
Nc1nc2ccc(OC(F)(F)F)cc2s1,fluorescence slope change,[3],active: 60.6%
same,outcome,[1],inactive
same,AC50,[2],inconclusive: 20.9 µM [cytotoxic]
same,AC50,[10],inconclusive: 20.9 µM [cytotoxic]
same,AC50,[13],inconclusive: 23.5 µM [cytotoxic]
C[C@]12CCC(=O)C=C1[C@@H]1C[C@@H]1[C@H]1[C@@H]3[C@@H]4C[C@@H]4[C@@]4(CCC(=O)O4)[C@@]3(C)CC[C@@H]12,outcome,[1],inactive
same,AC50,[2],inconclusive: 11.8 µM [cytotoxic]
same,AC50,[10],inconclusive: 13.2 µM [cytotoxic]
CC1COc2c(N3CCN(C)CC3)c(F)cc3c(=O)c(C(=O)O)cn1c23 (centres undefined),inhibition,[4],inconclusive: -5.07%
same,aggregation (% of control),[5],inconclusive: 95.9%
same,protection,[6],inconclusive: 1%
same,SMN2/SMN1 luciferase ratio,[7],inconclusive: 1.46
same,outcome,[1],inactive
same,AC50,[2],inconclusive: 2.64 µM [cytotoxic]
same,outcome,[9],inactive
same,outcome,[11],inactive
CNC(=O)c1ccc(-c2cnc3ncc(Cc4ccc5ncccc5c4)n3n2)cc1F,AC50,[1],inconclusive: 0.0934 µM [cytotoxic]
same,outcome,[2],inactive
same,AC50,[13],inconclusive: 7.42 µM [cytotoxic]
CCCCc1ccc(NS(=O)(=O)c2ccc(C)c(C(=O)N3CCN(c4cccc(C)c4C)CC3)c2)cc1,AC50,[1],inconclusive: 48.1 µM [cytotoxic]
same,AC50,[2],inconclusive: 33.2 µM [cytotoxic]
same,AC50,[9],inconclusive: 34 µM [cytotoxic]
same,AC50,[10],inconclusive: 38.2 µM [cytotoxic]
same,AC50,[11],active: 23.5 µM
same,AC50,[13],inconclusive: 30.3 µM [cytotoxic]
same,IC50,[12],inconclusive: 42.8 µM [cytotoxic]
CNC(=O)CN1CCC(Oc2cc3c(Nc4cccc(Cl)c4F)ncnc3cc2OC)CC1,AC50,[1],inconclusive: 0.525 µM [cytotoxic]
same,outcome,[2],inactive
same,AC50,[9],inconclusive: 7.42 µM [cytotoxic]
same,AC50,[10],inconclusive: 0.332 µM [cytotoxic]
same,outcome,[11],inactive
same,outcome,[13],inactive
same,outcome,[12],inactive
N[C@@H]1CONC1=O,inhibition,[4],inconclusive: -8.17%
same,aggregation (% of control),[5],inconclusive: 103%
same,protection,[6],inconclusive: -1%
same,SMN2/SMN1 luciferase ratio,[7],inconclusive: 1.13
same,outcome,[1],inactive
same,outcome,[2],inactive
same,outcome,[12],inactive
O=C1NC(=O)/C(=C\c2ccc(-c3ccc(F)cc3)o2)S1,outcome,[1],inactive
same,outcome,[2],inactive
same,outcome,[9],inactive
same,AC50,[10],inconclusive: 41.7 µM [cytotoxic]
same,AC50,[13],inconclusive: 29.5 µM [cytotoxic]
same,outcome,[12],inactive
CCCCn1c(=O)n(Cc2ccccc2F)c(=O)c2[nH]c(Cc3ccc(NC(C)=O)cc3)nc21,AC50,[1],inconclusive: 26.3 µM [cytotoxic]
same,AC50,[2],inconclusive: 2.64 µM [cytotoxic]
same,AC50,[9],inconclusive: 29.5 µM [cytotoxic]
same,AC50,[10],inconclusive: 37.2 µM [cytotoxic]
same,outcome,[11],inactive
same,outcome,[13],inactive
same,outcome,[12],inactive
C=C(C)[C@@H]1CC[C@]2(C(=O)O)CC[C@]3(C)[C@H](CC[C@@H]4[C@@]5(C)CC[C@H](O)C(C)(C)[C@@H]5CC[C@]43C)[C@@H]12,fluorescence slope change,[3],inconclusive: 39.9%
same,AC50,[1],active: 20.9 µM
same,outcome,[2],inactive
same,AC50,[9],inconclusive: 20.9 µM [cytotoxic]
same,outcome,[11],inactive

# Some of the entries above in a different format:
smiles	measurement	setting	value
O=P(O)(O)C(O)(Cn1ccnc1)P(=O)(O)O	AC50	[2]	inconclusive: 0.229 µM
O=C1CCC(N2C(=O)c3ccccc3C2=O)C(=O)N1 (centres undefined)	inhibition	[4]	inconclusive: -6.19%
CC(=O)Nc1ccc(O)cc1	fluorescence slope change	[3]	inactive: 29.1%
CC1COc2c(N3CCN(C)CC3)c(F)cc3c(=O)c(C(=O)O)cn1c23 (centres undefined)	protection	[6]	inconclusive: 1%
same	AC50	[2]	inconclusive: 2.64 µM [cytotoxic]
CNC(=O)c1ccc(-c2cnc3ncc(Cc4ccc5ncccc5c4)n3n2)cc1F	AC50	[13]	inconclusive: 7.42 µM [cytotoxic]
N[C@@H]1CONC1=O	aggregation (% of control)	[5]	inconclusive: 103%
